Experimental data as given in publication PMC4912613, “A broad analysis of resistance development in the malaria parasite” (Nature Communications, 2016).

Legend:
Format in all cases: cell-based, Plasmodium falciparum
[1] = tested on: CYTbQi (cytb G33A, parent Dd2); assay: Cross-resistance EC50 assay, CYTbQi; details: SYBR green 72 hour assay, synchronized parasites, 384-well format
Text: (§1) To evaluate potential overlapping activity against known antimalarial drug targets, we performed dose-response studies with each compound against our assembled set of drug-resistant lines and their corresponding parents, in an asexual blood stage proliferation assay (Table 1). Comparisons were made to the drug-sensitive strain 3D7 when a parent was unavailable (TM90C2A, W2 and Dd2). As laboratories conducted EC50 assays with different strains and protocols, all comparisons were made between assays from the same laboratory and under the same assay conditions. Compounds displaying >5-fold EC50 shifts relative to the parent or sensitive strain were flagged as having potentially non-novel targets. Average fold shifts per strain ranged from 0.82 to 2.34, with a median of 1.23 indicating there was not common resistance to any one resistant clone. No resistance patterns were observed when classifying the compounds based on chemical structure, but this was not surprising given the diversity of compounds chosen. On the other hand, given that these confirmed compounds were derived from larger unconfirmed hit lists to which some filtration criteria may have been applied (for example, elimination of obvious dihydrofolate reductase inhibitors[32]), some[10][11][12][13] pre-existing bias may exist in the set. […]
(§2) Alternatively, a SYBR Green-based proliferation approach was used for the 72-h assay, as previously described. Briefly, a culture of either synchronized or asynchronous parasitized RBCs (0.3% parasitemia and 4% haematocrit) in screening medium (identical to supplemented medium above except no serum was added) was exposed to serial drug dilutions. Plates were incubated at 37 °C and gassed with 93% N2, 4% CO2 and 3% O2 for 72 h. Following incubation, 10 × SYBR Green I (Invitrogen; supplied in 10,000 × concentration) in lysis buffer ([…], 5 mM EDTA, 0.16% Saponin wt per vol and 1.6% Triton X vol per vol) was added to the wells and the plates were incubated overnight at room temperature before plate reading. EC50 assays were repeated three times, taking the average EC50 value from each assay set, and removing any outliers using a single iteration of Grubbs' test, eliminating values with z-scores above the critical z-value (α=0.05). The raw EC50 values for synchronized parasites assayed in a 384-well format are listed in Supplementary Data 4. The raw EC50 values for asynchronous parasites assayed in a 96 or 1536-well format are listed in Supplementary Data 5.
(§3) EC50 values for each strain were compared with those of the corresponding parent strain to determine fold-shift changes and identify resistance. To minimize the cause variance between assays, all comparisons were conducted between strains assayed under identical conditions. A one-way ANOVA followed by a Dunnet's post-test was conducted in GraphPad Prism to identify significant changes between the parent and resistant strain.

[2] = tested on: GNF449-R2 (PfATP4 I203L and P990R, parent Dd2); assay: Cross-resistance EC50 assay, GNF449-R2; details: SYBR green 72 hour assay, asynchronized parasites, 96-well or 1536-well format
Text: as §1, §2, §3

PfCRT-Q352R (parent Dd2) = assay: Cross-resistance EC50 assay, PfCRT-Q352R; details: SYBR green 72 hour assay, synchronized parasites, 384-well format
Text: as §1, §2, §3

Dd2 = assay: Cross-resistance EC50 assay, Dd2 parent; details: SYBR green 72 hour assay
Text: (§4) Multidrug resistance alleles, including mutations in P. falciparum chloroquine resistance transporter (pfcrt) and P. falciparum multi-drug resistance transporter 1 (pfmdr1) are very common in field isolates. Therefore, we sought to assess the degree to which pre-existing resistance alleles would contribute to a loss of potency for this diverse collection of small molecule compounds. Fifteen clones derived from three main parent lines were chosen to maximize diversity in mutated pathways and genetic backgrounds, thus representing the variety of resistance seen in the field: 3D7 (ref. [23]), W2 (ref. [24]) or Dd2 (ref. [25]). The 3D7 line originates from the clone of a Netherlands clinical isolate strain[23][26] and is generally considered to be drug sensitive, though it does convey resistance to sulfadoxine. Conversely, W2 (ref. [24], [27]) and Dd2 (ref. [25]) are multi-drug-resistant lines originating from the Indochina III/CDC isolate, which contain point mutations in pfcrt as well as amplifications in pfmdr1 and GTP cyclohydrolase.
as §1, §2, §3

3D7 = assay: Cross-resistance EC50 assay, 3D7 parent / sensitive strain; details: for 3D7-C9-WT (PARENT) Average Hill Slope: strain 3D7-C9-WT (parent of PfATP4 Mut3)
Text: as §4
To evaluate potential overlapping activity against known antimalarial drug targets, we performed dose-response studies with each compound against our assembled set of drug-resistant lines and their corresponding parents, in an asexual blood stage proliferation assay (Table 1). Comparisons were made to the drug-sensitive strain 3D7 when a parent was unavailable (TM90C2A, W2 and Dd2). As laboratories conducted EC50 assays with different strains and protocols, all comparisons were made between assays from the same laboratory and under the same assay conditions. Compounds displaying >5-fold EC50 shifts relative to the parent or sensitive strain were flagged as having potentially non-novel targets. Average fold shifts per strain ranged from 0.82 to 2.34, with a median of 1.23 indicating there was not common resistance to any one resistant clone. No resistance patterns were observed when classifying the compounds based on chemical structure, but this was not surprising given the diversity of compounds chosen. On the other hand, given that these confirmed compounds were derived from larger unconfirmed hit lists to which some filtration criteria may have been applied (for example, elimination of obvious dihydrofolate reductase inhibitors[32]), some[10][11][12][13] pre-existing bias may exist in the set.
The 48-h assay was carried out in a 96-well format following standard methods using the ^3H-hypoxanthine incorporation assay. The raw EC50 values corresponding to this assay can be found in Supplementary Data 3. Briefly, this assay relies on the parasite incorporation of labelled hypoxanthine that is proportional to P. falciparum growth. A culture of parasitized RBCs (0.5% parasitemia with a percentage of ring stage higher than 70% of total parasitemia, 2.0% haematocrit) in RPMI-1640, […] and 5 μM hypoxanthine was exposed to drug serial dilutions. Plates were incubated for 24 h at 37 °C, 5% CO2, 5% O2 and 90% N2. After 24 h of incubation, ^3H-hypoxanthine was added and plates were incubated for an additional 24-h period. After that, parasites were harvested on a glass fibre filter using a TOMTEC Cell Harvester 96. Filters were dried and melt-on scintillator sheets were used to determine the incorporation of ^3H-hypoxanthine. Radioactivity was measured using a microbeta counter. Data were normalized using the incorporation of the positive (parasitized RBCs without drug) and negative (same culture with artesunate at 2 μM) controls. All assays were conducted in triplicate using three independently grown cultures, and EC50 values were determined using the XLfit add-in module for Excel (version 2.3.1) from Grafit (version 5.3.1.3), where parameter h is the assay hill slope, x is the compound concentration and y is the inhibition of growth effect. The XLfit equation is: […]
Alternatively, a SYBR Green-based proliferation approach was used for the 72-h assay, as previously described. […]

[3] = asynchronized parasites, 96-well or 1536-well format, Dd2 parent
[4] = SYBR green 72 hour assay, asynchronized parasites, 96-well or 1536-well format, 3D7 parent
[5] = hypoxanthine 48-hour assay, synchronized parasites, 96-well format, strain 3D7 (parent)
[6] = hypoxanthine 48-hour assay, synchronized parasites, 96-well format
[7] = strain PfCRT:Q352R (Dd2 parent)
[8] = synchronized parasites, 384-well format, strain Dd2 (parent)
[9] = SYBR green 72 hour assay, synchronized parasites, 384-well format, strain 3D7 (parent)

Row | Structure (SMILES) | CYTbQi (Dd2 Parent) Average Hill Slope ([1]; CYTbQi strain) | GNF449-R2 (Dd2 Parent) Average Hill Slope [2] | PfCRT:Q352R (Dd2 Parent) Average Hill Slope (PfCRT-Q352R (parent Dd2); PfCRT:Q352R strain) | Dd2 (PARENT) Average Hill Slope (Dd2; [3]) | Dd2 (PARENT) Average Hill Slope (Dd2; synchronized parasites, 384-well format, Dd2 parent) | 3D7 (PARENT) Average Hill Slope (3D7; [4]) | 3D7 (PARENT) Average Hill Slope (3D7; SYBR green 72 hour assay, synchronized parasites, 384-well format, 3D7 parent) | 3D7 (PARENT) Average Hill Slope (3D7; [5]) | 3D7-C9-WT (PARENT) Average Hill Slope (3D7; [6]) | CYTbQi (Dd2 Parent) Average Hill Slope ([1]; strain CYTbQi (Dd2 parent)) | PfCRT:Q352R (Dd2 Parent) Average Hill Slope (PfCRT-Q352R (parent Dd2); [7]) | Dd2 (PARENT) Average Hill Slope (Dd2; [8]) | 3D7 (PARENT) Average Hill Slope (3D7; [9])
1 | COc1ccc2c3c([nH]c2c1)[C@H](CO)N(C(C)=O)CC31CCN(C(=O)Nc2ccccc2F)CC1 [MMV673482] | 9.66 | 1.05 | 6.95 | 1.59 | 6.29 | 1.31 | 2.62 | 1.21 | 0.93 |  |  |  | 
2 | Nc1ccc(-c2nc3cc(Cc4ccc5[nH]c(-c6ccc(N)cc6)nc5c4)ccc3[nH]2)cc1 [MMV665943] |  | 2.33 |  | 4.19 |  | 3.38 |  | 4.05 | 1.52 | 6.75 | 4.16 | 5.37 | 6.80
3 | CCOc1cc2c(cc1OCC)C(c1cc(Cl)ccc1O)NCC2 (stereo not drawn) [MMV000478] |  | 1.16 |  | 1.82 |  | 1.12 |  | 1.86 | 2.60 | 2.24 | 1.52 | 1.57 | 5.75
4 | CNCc1ccc2nc(-c3coc(Cc4cc(Cl)ccc4OCC(C)C)n3)[nH]c2c1.Cl.Cl [MMV026596] |  | 1.38 |  | 1.41 |  | 2.65 |  | 2.57 | 5.75 | 6.20 | 4.82 | 4.99 | 13.1
5 | Cl.c1ccc2c(NCCCCCCNc3c4c(nc5ccccc35)CCCC4)c3c(nc2c1)CCCC3 [MMV019555] |  | 1.91 |  | 2.15 |  | 3.94 |  | 4.55 | 2.52 | 3.88 | 4.02 | 3.23 | 7.30
6 | O=C(NC(c1ccccc1)c1ccc2cccnc2c1O)c1ccccc1 (stereo not drawn) [MMV666080] |  | 3.13 |  | 1.80 |  | 2.34 |  | 0.84 | 0.51 | 7.31 | 1.70 | 1.89 | 2.64
